Assay results taken from the supplement of paper PMC10849652.
The list shows a part of the results.

The chains behind the UniProt entries cited, without tags or fusion partners. Where a name states a change or a piece, a line headed by the entry shows the natural chain unless it says otherwise.
UniProt Q9NS00: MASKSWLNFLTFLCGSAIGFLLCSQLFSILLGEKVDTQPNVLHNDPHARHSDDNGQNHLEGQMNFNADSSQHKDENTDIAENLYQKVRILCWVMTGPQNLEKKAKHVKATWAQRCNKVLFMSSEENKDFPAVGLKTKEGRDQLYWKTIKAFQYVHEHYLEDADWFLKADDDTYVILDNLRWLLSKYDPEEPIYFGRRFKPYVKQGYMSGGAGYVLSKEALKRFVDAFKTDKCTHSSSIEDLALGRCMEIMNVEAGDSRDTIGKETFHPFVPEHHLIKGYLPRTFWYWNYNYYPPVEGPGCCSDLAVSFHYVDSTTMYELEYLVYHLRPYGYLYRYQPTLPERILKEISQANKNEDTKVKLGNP
UniProt O43709: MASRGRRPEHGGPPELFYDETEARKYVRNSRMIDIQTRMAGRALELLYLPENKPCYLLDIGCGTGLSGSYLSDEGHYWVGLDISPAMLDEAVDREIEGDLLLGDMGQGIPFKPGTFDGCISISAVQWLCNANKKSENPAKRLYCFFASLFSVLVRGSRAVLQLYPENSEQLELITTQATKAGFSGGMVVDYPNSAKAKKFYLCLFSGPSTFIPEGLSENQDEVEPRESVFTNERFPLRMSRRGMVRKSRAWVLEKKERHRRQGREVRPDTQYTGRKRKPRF
UniProt Q8NDD1: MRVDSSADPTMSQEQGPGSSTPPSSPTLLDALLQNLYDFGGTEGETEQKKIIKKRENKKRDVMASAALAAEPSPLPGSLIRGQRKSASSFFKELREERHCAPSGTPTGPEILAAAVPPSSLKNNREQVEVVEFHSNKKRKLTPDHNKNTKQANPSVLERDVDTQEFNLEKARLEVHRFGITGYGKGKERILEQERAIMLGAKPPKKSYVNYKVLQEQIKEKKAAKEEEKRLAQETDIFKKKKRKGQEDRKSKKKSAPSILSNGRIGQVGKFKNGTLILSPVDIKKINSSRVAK
UniProt Q8N999, whole entry, looked up: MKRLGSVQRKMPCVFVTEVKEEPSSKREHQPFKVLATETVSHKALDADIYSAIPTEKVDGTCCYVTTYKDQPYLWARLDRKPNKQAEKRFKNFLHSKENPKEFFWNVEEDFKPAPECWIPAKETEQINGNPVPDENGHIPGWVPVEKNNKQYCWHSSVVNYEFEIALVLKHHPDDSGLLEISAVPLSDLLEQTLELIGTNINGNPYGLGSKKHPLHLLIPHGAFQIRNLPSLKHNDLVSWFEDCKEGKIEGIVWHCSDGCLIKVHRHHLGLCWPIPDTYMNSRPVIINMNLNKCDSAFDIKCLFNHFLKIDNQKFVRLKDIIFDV
UniProt P27797, whole entry, looked up: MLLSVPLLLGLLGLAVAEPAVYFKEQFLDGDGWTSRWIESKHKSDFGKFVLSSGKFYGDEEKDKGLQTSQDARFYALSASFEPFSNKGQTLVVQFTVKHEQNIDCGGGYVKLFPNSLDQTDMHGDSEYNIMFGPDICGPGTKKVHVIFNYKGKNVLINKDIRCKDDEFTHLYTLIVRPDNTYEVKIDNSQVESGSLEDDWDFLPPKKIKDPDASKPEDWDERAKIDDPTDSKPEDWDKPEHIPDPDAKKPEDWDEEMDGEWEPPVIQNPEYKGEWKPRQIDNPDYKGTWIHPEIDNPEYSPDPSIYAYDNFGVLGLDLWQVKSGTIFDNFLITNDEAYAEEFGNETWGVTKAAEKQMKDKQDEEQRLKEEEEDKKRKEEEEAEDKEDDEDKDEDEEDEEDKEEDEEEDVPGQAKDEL
UniProt O43683: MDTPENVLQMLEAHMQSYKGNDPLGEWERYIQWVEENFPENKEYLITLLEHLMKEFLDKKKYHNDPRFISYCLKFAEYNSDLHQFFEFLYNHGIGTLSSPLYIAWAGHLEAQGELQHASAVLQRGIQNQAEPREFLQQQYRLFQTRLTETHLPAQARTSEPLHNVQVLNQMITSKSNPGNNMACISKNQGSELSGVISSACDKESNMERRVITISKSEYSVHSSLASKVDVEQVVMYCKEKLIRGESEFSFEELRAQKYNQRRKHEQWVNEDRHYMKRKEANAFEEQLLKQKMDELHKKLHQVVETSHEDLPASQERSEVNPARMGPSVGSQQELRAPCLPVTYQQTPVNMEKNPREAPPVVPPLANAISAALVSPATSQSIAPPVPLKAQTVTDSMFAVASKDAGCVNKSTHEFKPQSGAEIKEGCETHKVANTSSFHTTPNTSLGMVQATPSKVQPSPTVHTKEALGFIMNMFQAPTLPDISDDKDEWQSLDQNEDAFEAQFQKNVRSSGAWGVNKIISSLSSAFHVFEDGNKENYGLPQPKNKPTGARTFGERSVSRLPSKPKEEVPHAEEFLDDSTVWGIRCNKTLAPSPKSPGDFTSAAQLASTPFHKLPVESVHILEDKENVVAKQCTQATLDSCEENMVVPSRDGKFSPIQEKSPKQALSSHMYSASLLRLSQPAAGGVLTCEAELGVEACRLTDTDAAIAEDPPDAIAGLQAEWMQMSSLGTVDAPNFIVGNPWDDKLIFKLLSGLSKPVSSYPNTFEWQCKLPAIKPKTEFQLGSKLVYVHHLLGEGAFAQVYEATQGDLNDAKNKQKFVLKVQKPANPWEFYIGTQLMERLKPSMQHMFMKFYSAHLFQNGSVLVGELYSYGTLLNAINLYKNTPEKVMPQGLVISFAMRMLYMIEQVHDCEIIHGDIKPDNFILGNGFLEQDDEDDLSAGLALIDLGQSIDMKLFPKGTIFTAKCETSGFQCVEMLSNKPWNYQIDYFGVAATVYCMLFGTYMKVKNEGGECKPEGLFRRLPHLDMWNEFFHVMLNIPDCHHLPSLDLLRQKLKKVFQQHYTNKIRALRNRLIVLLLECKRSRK
UniProt Q9Y376: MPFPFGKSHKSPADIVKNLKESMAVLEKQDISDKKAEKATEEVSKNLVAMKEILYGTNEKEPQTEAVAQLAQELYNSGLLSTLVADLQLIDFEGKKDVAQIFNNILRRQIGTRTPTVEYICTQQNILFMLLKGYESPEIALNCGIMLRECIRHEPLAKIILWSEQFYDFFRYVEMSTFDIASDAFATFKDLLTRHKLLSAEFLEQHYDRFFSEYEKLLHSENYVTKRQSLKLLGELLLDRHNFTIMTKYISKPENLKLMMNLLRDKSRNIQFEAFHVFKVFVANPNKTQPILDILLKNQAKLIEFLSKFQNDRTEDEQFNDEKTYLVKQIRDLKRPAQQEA
UniProt Q9BVC5: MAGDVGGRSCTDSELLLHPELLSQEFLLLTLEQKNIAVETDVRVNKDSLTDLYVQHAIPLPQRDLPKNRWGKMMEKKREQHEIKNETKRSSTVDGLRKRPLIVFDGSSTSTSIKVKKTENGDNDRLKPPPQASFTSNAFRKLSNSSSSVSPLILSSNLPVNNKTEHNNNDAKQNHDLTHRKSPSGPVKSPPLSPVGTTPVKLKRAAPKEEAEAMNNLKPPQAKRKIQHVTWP
UniProt O43852: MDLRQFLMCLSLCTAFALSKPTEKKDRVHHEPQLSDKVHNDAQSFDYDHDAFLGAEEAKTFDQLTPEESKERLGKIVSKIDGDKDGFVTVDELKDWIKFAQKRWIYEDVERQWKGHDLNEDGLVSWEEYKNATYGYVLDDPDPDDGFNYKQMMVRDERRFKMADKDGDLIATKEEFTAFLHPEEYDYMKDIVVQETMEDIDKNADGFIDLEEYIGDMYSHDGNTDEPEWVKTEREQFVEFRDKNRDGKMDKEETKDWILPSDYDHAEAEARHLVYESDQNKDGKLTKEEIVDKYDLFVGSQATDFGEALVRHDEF
UniProt Q8IXQ3: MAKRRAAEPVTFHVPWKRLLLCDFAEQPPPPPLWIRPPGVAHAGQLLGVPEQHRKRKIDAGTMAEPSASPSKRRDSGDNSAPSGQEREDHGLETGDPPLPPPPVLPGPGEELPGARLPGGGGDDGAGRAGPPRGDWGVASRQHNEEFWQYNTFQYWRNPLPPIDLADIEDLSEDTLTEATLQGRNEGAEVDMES
UniProt A6NDU8: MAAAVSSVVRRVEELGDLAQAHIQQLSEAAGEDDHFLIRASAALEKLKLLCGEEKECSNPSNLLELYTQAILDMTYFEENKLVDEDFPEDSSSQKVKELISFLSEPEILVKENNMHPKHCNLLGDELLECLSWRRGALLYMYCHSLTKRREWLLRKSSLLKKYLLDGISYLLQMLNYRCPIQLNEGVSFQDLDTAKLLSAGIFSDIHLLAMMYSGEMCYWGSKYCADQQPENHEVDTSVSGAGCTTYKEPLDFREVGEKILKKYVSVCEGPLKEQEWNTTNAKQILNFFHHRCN
UniProt Q6UWU4: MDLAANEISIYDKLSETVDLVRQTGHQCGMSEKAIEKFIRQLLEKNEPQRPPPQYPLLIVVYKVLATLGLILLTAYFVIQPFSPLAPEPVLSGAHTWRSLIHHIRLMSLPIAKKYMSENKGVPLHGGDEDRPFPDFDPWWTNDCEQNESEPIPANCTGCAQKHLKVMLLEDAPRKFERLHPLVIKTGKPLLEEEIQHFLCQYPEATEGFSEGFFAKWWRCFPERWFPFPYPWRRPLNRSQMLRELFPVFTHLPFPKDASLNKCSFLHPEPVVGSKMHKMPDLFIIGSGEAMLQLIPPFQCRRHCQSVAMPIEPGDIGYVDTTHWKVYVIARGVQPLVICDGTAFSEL
UniProt Q9Y2V2: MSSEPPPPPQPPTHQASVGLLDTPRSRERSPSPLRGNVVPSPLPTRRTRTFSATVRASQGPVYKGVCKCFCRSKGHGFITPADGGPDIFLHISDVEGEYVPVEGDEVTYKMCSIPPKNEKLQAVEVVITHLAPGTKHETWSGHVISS
UniProt Q49AR2: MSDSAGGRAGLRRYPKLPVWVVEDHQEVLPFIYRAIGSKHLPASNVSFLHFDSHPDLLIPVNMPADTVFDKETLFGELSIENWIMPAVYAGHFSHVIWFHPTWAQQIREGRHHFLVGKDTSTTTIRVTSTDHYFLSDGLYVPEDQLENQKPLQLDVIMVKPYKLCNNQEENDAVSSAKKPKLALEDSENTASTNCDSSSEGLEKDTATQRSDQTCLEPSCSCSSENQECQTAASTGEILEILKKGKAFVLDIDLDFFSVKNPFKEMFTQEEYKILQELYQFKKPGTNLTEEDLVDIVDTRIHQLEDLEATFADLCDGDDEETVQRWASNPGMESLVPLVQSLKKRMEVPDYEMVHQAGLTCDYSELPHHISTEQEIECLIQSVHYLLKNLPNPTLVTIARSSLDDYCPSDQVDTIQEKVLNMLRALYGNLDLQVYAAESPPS
UniProt Q6ZSJ8: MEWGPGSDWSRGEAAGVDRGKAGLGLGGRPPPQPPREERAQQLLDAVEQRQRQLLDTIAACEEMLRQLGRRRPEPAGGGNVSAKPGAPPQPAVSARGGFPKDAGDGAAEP
UniProt Q9H0W9: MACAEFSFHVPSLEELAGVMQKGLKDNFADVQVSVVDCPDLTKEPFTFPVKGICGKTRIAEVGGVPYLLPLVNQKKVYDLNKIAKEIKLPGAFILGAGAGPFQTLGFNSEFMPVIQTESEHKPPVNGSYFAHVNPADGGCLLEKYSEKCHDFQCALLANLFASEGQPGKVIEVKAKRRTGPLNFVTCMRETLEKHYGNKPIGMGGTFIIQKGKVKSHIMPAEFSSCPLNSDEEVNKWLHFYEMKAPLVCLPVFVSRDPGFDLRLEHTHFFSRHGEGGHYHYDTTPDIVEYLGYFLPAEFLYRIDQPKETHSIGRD
UniProt Q9NX04: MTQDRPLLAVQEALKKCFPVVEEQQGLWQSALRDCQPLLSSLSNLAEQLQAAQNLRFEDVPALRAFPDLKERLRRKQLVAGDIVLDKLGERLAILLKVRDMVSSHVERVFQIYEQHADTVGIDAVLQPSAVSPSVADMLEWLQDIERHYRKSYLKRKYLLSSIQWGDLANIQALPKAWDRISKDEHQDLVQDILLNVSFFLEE
UniProt Q5JPI3: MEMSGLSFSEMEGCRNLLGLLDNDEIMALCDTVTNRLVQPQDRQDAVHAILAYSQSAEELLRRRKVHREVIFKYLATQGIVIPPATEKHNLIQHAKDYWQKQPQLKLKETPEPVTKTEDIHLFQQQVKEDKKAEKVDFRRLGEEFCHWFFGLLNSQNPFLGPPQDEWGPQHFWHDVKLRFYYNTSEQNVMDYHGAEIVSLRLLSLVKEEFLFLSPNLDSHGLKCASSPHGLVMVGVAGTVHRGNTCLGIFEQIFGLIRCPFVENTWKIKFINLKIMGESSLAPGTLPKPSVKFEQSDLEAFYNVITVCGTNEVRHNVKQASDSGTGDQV

compound: CNCc1ccc(-c2[nH]c3cc(F)cc4c3c2CCNC4=O)cc1 [rucaparib]; experiment: log2 fold change, soluble protein after heating vs DMSO (PISA); higher = thermal stabilisation; K562 cells, 10 uM, 30 min; active = over 0.2 and 3.5 SD of the protein, either way, in both replicates (recomputed)
Outline: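 K562 cells at 2×10^6 cells/mL were given 10 μM compound for 30 min. Aliquots then went through 3 min of heating across 48°C-58°C, were pooled, and were extracted in PBS with 0.5% NP-40 at 4°C, and the supernatant after 21,000xg for 90 min was quantified by TMTpro 16plex LC-MS/MS with channel sums equalised. Thermal stability relative to control samples, from duplicates, is given as log2 fold change.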

Target | log2 fold change
C1GALT1 (UniProt Q9NS00) | inactive: -0.011
BUD23 isoform 3 (UniProt O43709) | inactive: 0.01
C1orf131 isoform 5 (UniProt Q8NDD1) | inactive: 0.27
BTF3 (UniProt P20290) | inactive: -0.012
C12orf29 (UniProt Q8N999) | inactive: -0.026
C11orf98 (UniProt E9PRG8) | inactive: 0.253
CALR (UniProt P27797) | inactive: 0.04
BUB1 (UniProt O43683) | inactive: -0.287
CAB39 (UniProt Q9Y376) | inactive: -0.052
C2orf49 (UniProt Q9BVC5) | inactive: 0.13
CALU isoform 3 (UniProt O43852) | inactive: -0.1
C9orf40 (UniProt Q8IXQ3) | inactive: 0.01
C5orf51 (UniProt A6NDU8) | inactive: -0.057
CAPZA2 (UniProt P47755) | inactive: -0.021
CALM2 (UniProt P0DP24) | inactive: -0.058
C6orf89 isoform 2 (UniProt Q6UWU4) | inactive: -0.076
CARHSP1 (UniProt Q9Y2V2) | inactive: -0.018
C5orf22 (UniProt Q49AR2) | inactive: -0.003
C1orf122 (UniProt Q6ZSJ8) | inactive: 0.023
C11orf54 (UniProt Q9H0W9) | inactive: -0.031
C1orf109 (UniProt Q9NX04) | inactive: 0.07
C3orf38 (UniProt Q5JPI3) | inactive: -0.234

Taken from above:
log2 fold change with CALM2 (UniProt P0DP24) reads inactive: -0.058
log2 fold change with CALU isoform 3 (UniProt O43852) reads inactive: -0.1
